Reference: PubChem BioAssay AID1259308 (NCATS, 2017)
Here is an unselected part of about 59,000 reagents tested. About 1,510 of all reagents (2.6%) were called active. 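Calls use total luciferase alone and ignore viability, so some active siRNAs may act by altering cell number.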 A number with no mark means an inactive call. The numbers tell different reagents against one gene apart. Not all columns of the deposit are shown. No sequences are given here.

- Screen: 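Genes whose loss raises luciferase production in HEK293 cells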 (primary screen)
- Cell system: human HEK293 embryonic kidney cells stably expressing firefly luciferase (HEK-CMV-Luc2-Hygro)
- Reagents: single siRNA against human genes, 0.8 pmol siRNA per well
- Timing: 72 h
- Read-out: 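Reporter luminescence and viable-cell signal on separate replicate plates, given as percent of non-targeting control and median/MAD z-scores, plus per-cell luciferase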
- Reading the numbers: total luciferase, z-score and total luciferase, % of control: higher = more reporter protein produced
- Hit rule: 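Active when the median/MAD z-score for overall luciferase is greater than 3; a gene was taken forward for validation with new siRNAs if at least two of its three siRNAs passed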
- Calls: active = raised luciferase; inactive = no rise

LMBR1 #1 | total luciferase, z-score: 0.626; total luciferase, % of control: 94.3
LMBR1 #2 | total luciferase, z-score: -0.787; total luciferase, % of control: 66.2
LMBR1 #3 | total luciferase, z-score: 0.185; total luciferase, % of control: 85.6
ZNF385A #1 | total luciferase, z-score: -1.4; total luciferase, % of control: 54
ZNF385A #2 | total luciferase, z-score: 0.702; total luciferase, % of control: 95.8
ZNF385A #3 | total luciferase, z-score: -2.44; total luciferase, % of control: 33.4
SPTB #1 | total luciferase, z-score: -0.494; total luciferase, % of control: 72.1
SPTB #2 | total luciferase, z-score: 0.157; total luciferase, % of control: 85
SPTB #3 | total luciferase, z-score: 0.203; total luciferase, % of control: 85.9
IPO11 #1 | total luciferase, z-score: -0.1; total luciferase, % of control: 79.9
IPO11 #2 | total luciferase, z-score: -2.12; total luciferase, % of control: 39.8
IPO11 #3 | total luciferase, z-score: 0.0196; total luciferase, % of control: 82.3
CCL26 #1 | total luciferase, z-score: 1.36; total luciferase, % of control: 109
CCL26 #2 | total luciferase, z-score: -0.0151; total luciferase, % of control: 81.6
CCL26 #3 | total luciferase, z-score: -0.75; total luciferase, % of control: 67
RBMS1 #1 | total luciferase, z-score: -2.04; total luciferase, % of control: 41.3
RBMS1 #2 | total luciferase, z-score: 0.323; total luciferase, % of control: 88.3
RBMS1 #3 | total luciferase, z-score: -0.583; total luciferase, % of control: 70.3
RPL24 #1 | total luciferase, z-score: -3.2; total luciferase, % of control: 18.1
RPL24 #2 | total luciferase, z-score: -2.14; total luciferase, % of control: 39.3
RPL24 #3 | total luciferase, z-score: -1.96; total luciferase, % of control: 42.9

Records listed so far whose gene name begins with S or s (3):
SPTB #1 | total luciferase, z-score: -0.494; total luciferase, % of control: 72.1
SPTB #2 | total luciferase, z-score: 0.157; total luciferase, % of control: 85
SPTB #3 | total luciferase, z-score: 0.203; total luciferase, % of control: 85.9
